Measured values reported in PubChem BioAssay AID1347075 (National Center for Advancing Translational Sciences (NCATS), 2019).
The whole screen tested about 400,000 compounds, of which about 5,500 (1.4%) were called active. The shares of active, inactive and inconclusive entries below differ from those in the screen. Calls follow the shape of the dose curve; as a rule, active = well fitted cell-killing curve with a large enough effect; inconclusive = small, poorly fitted or top-dose-only effect, or effect the other way; inactive = flat fitted curve, though single readings scatter. Potencies beside an inconclusive call are fits to weak or partial responses and may not hold up.

Test: qHTS assay for MDR1-selective chemotherapeutics: Primary screen using the parental adenocarcinoma cell KB-3-1; also: nearly all actives have a fitted effect of over 60% in size
Conditions: KB-3-1 viability, CellTiter-Glo ATP luminescence, 72 h; activity change, negative = cytotoxic: at 46.1 µM (top of the series)
How it was run: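 Parental KB-3-1 adenocarcinoma cells in phenol-red-free DMEM with 10% FBS were pin-treated with compounds at several concentrations, incubated 72 h at 37 °C, and viability read by CellTiter-Glo luminescence; concentration-effect curves were fitted after normalization.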
% is scaled to controls: 0 for no effect and ±100 for the full control effect; potency is read from the fitted curve at half-maximal effect.

SMILES	Potency	activity change, negative = cytotoxic
O=C(O)CCn1cc(/C=C/C(=O)c2ccc(Cl)cc2)c(-c2cccc(Br)c2)n1	inconclusive: 18.4 µM [cytotoxic, single point]	–
CCOc1ccccc1NC(=O)CSc1nc2c(c(=O)n1C)SC(C)C2 (centres undefined)	–	inactive: -17.4%
COc1ccc(-n2nc3c(c2NC(=O)C(=O)NCc2ccccc2)CSC3)cc1	–	inactive: -2.32%
CCOC1=C2CN(S(=O)(=O)c3ccc(C)cc3)C(c3ccc(CC)cc3)CC2N(S(=O)(=O)c2ccc(C)cc2)C(c2ccc(CC)cc2)C1 (centres undefined)	active: 1.03 µM	–
CCOc1ccc(N=Cc2ccccc2O)cc1	–	inactive: 0.66%
Cc1cc(C)c2c(=O)n3c(nc2c1)C(Cc1ccc(O)cc1)NC(=O)c1cc2ccccc2cc1-3 (centres undefined)	inconclusive: 20.6 µM [cytotoxic, partial curve]	–
Cc1ccc(-n2nnnc2-c2cnc(N3CCCC3)nc2C(F)(F)F)cc1	inconclusive: 29.1 µM [cytotoxic, single point]	–
COc1ccc(C=C2SC(=S)NC2=O)c(OC)c1OC	inconclusive: 16.4 µM [cytotoxic, single point]	–
Cc1cc(C)n2ncc(C(=O)N3CCCC3)c2n1	–	inactive: 5.58%
C[C@H]1CCC[C@]2(O[C@H](CCO)C[C@@H](O)[C@@H]2O)O1	–	inactive: 0.422%
CCCCNC(=O)c1nc(C2CCN(S(=O)(=O)c3c(OC)cccc3OC)CC2)oc1-c1ccccc1	–	inactive: -13%
COc1cc(C(C)=O)ccc1Oc1ncccn1	inconclusive: 29.1 µM [cytotoxic, single point]	–
Clc1ccc(SCc2cc(N3CCOCC3)nc(-c3ccccn3)n2)cc1	inconclusive: 20.6 µM [cytotoxic, single point]	–
C/C(=N\NC(=O)c1c(C)nc2ccccn12)c1ccc(O)cc1O	inconclusive: 5.17 µM [cytotoxic, full curve]	–
Cc1ccc(CN2C(=O)C(=O)c3cc(C)ccc32)cc1	inconclusive: 25.9 µM [cytotoxic, single point]	–
CCOc1ccc(-c2cc(CCCC(=O)NCCc3ccc(SC)cc3)no2)cc1	–	inactive: 10.9%
O=C(Nc1ccccc1)Nc1cc([N+](=O)[O-])ccc1F	inconclusive: 18.4 µM [rising, single point]	–
C=CCN(C(=O)c1csnn1)C(C(=O)NCc1ccccc1)c1ccccc1F (centres undefined)	inconclusive: 0.206 µM [cytotoxic, full curve]	–
CCOc1ccc(/C=C/C(=O)c2c(O)cc(C)oc2=O)cc1	inconclusive: 13 µM [cytotoxic, partial curve]	–
CC(C)c1nc(SCC(=O)Nc2ccc(N(C)C)cc2)c2ccccc2n1	inconclusive: 20.6 µM [cytotoxic, single point]	–
COc1ccccc1OCC(=O)N/N=C/C=C/c1ccc([N+](=O)[O-])o1	inconclusive: 29.1 µM [cytotoxic, single point]	–
CSC(=NS(=O)(=O)c1ccc(N)cc1)NS(=O)(=O)c1cccs1	inconclusive: 0.0046 µM [rising, full curve, poor fit]	–
CCCCCCCCCC[n+]1cccc2cc(Br)ccc21	active: 1.3 µM	–

Complete entries as entered above. Order of values: Potency	activity change, negative = cytotoxic
COc1cc(C(C)=O)ccc1Oc1ncccn1 in the list: inconclusive: 29.1 µM [cytotoxic, single point]	–
COc1ccc(C=C2SC(=S)NC2=O)c(OC)c1OC in the list: inconclusive: 16.4 µM [cytotoxic, single point]	–
CC(C)c1nc(SCC(=O)Nc2ccc(N(C)C)cc2)c2ccccc2n1 in the list: inconclusive: 20.6 µM [cytotoxic, single point]	–
C=CCN(C(=O)c1csnn1)C(C(=O)NCc1ccccc1)c1ccccc1F (centres undefined) in the list: inconclusive: 0.206 µM [cytotoxic, full curve]	–

More compounds

SMILES	Potency	activity change, negative = cytotoxic
CN(C)S(=O)(=O)c1cccc(NC(=O)COc2ccccc2C(=O)NCc2ccccc2)c1	inconclusive: 16.4 µM [cytotoxic, single point]	–
O=C(c1cc(C(=O)N2CCN(c3ccc(F)cc3)CC2)cc([N+](=O)[O-])c1)N1CCN(c2ccc(F)cc2)CC1	inconclusive: 16.4 µM [cytotoxic, partial curve, poor fit]	–
CCSc1nc(-c2ccc(OC)cc2)ccc1C#N	inconclusive: 16.4 µM [cytotoxic, single point]	–
CC1(C2CC2)NC(=O)N(CC(=O)Nc2ccc(OC(F)F)cc2)C1=O (centres undefined)	inconclusive: 0.0092 µM [cytotoxic, full curve]	–
CCCCN(CCCNC(=O)C1CCN(S(=O)(=O)N2CCOCC2)CC1)c1ccccc1	inconclusive: 20.6 µM [cytotoxic, single point]	–
Cc1cn([C@H]2C[C@H](O)[C@@H](COS(=O)(=O)O)O2)c(=O)[nH]c1=O	inconclusive: 16.4 µM [cytotoxic, partial curve]	–
Cc1ccc(/C=C2\CCC3=C2OC(N)=C(C#N)C3c2ccc(C)cc2)cc1 (centres undefined)	–	inactive: -6.84%
Cc1c(OC(C)C(=O)NCC2CCC(C(=O)O)CC2)ccc2c1oc(=O)c1ccccc12 (centres undefined)	–	inconclusive: -18.3%
Cc1ccc(C)c(NC(=O)COC(=O)c2nc(Cl)ccc2Cl)c1	inconclusive: 29.1 µM [cytotoxic, single point]	–
Cc1ccccc1NC(=O)C(=O)c1cn(C)c2ccccc12	–	inactive: -15.4%
CN[C@@H]1CC[C@H](c2ccc(Cl)c(Cl)c2)c2ccccc21	–	inactive: 13.4%
CC(=O)Nc1ccc2c(c1)C(N1CC3CCC(CC3)C1)c1ccccc1-2 (centres undefined)	inconclusive: 32.6 µM [cytotoxic, single point]	–
Cc1cccc(-c2ncc(CN3CCN(CC(C)C)C(CCO)C3)cn2)c1 (centres undefined)	inconclusive: 29.1 µM [cytotoxic, single point]	–
CCOc1ccc(C2C(C(=O)OC)=CN(C(C)c3ccccc3)C=C2C(=O)OC)cc1 (centres undefined)	–	inactive: 0%
CCOC(=O)Cc1csc(NC(=O)CN2CCOCC2)n1	–	inactive: -2.95%
Cc1ccc(NC(=O)C2C(=O)N(C)c3ccccc32)cc1 (centres undefined)	–	inactive: -1.17%
CCOC(=O)N1CCN(C(=O)c2cnn3c(C(F)(F)F)cc(-c4cccs4)nc23)CC1	–	inactive: -8.88%
COc1ccc(-c2ccc(/C=C3/C(=N)N4C(C)=CSC4=NC3=O)o2)c([N+](=O)[O-])c1	–	inactive: 2.41%
CCOC(=O)N1CCN(C(=O)c2ccc3c(=O)n(CCOC)c(=O)[nH]c3c2)CC1	–	inactive: 10.9%
COc1ccc2cc3cc(C(=O)NCCN4CCc5ccccc5C4)oc3nc2c1	inconclusive: 23.1 µM [cytotoxic, partial curve, poor fit]	–
Cc1ccc(C)c(NS(=O)(=O)c2cc(C(=O)NCc3ccccn3)ccc2Cl)c1	inconclusive: 29.1 µM [cytotoxic, single point]	–
Cc1ccc(-n2nc3c([n+]2[O-])CCc2c-3no[n+]2[O-])cc1	inconclusive: 23.1 µM [cytotoxic, single point]	–
CCOCCOc1cc(NCc2ccccc2)c2ncn(C(C)C)c2c1	inconclusive: 32.6 µM [cytotoxic, single point]	–

SMILES	Potency	activity change, negative = cytotoxic
CCc1ccc(-c2cc(C)no2)cc1S(=O)(=O)NCc1ccc(OC)cc1	active: 3.26 µM	–
CCOC(=O)c1cccc(Nc2nc(-c3cccnc3)nc3ccccc23)c1	inconclusive: 29.1 µM [cytotoxic, single point]	–
C=CCOc1ccccc1C(=O)/C=C1/C(=O)Nc2ccccc21	inconclusive: 29.1 µM [cytotoxic, single point]	–
COc1ccc(-c2ccc(/C=N/NC(=O)c3cccnc3)o2)c([N+](=O)[O-])c1	inconclusive: 2.91 µM [cytotoxic, partial curve, poor fit]	–
OC(C#CCCN1CCCCC1)(c1ccccc1)C1CCCCC1 (centres undefined)	–	inconclusive: -16.8%
O=C(CCC1CCCN(C(=O)C2(c3ccccc3)CC2)C1)N1CCN(c2ccccn2)CC1 (centres undefined)	inconclusive: 16.4 µM [cytotoxic, single point]	–
O=C(NC(=S)N1CCc2ccccc21)c1ccccc1	inconclusive: 23.1 µM [cytotoxic, single point]	–
NNC(=O)/C(=N/Nc1ccccc1)S(=O)(=O)c1ccc(Cl)cc1	active: 18.4 µM	–
CC(=O)N1CCc2c(sc3c2c(=O)n(-c2cc(Cl)ccc2C)c(=O)n3C)C1	inconclusive: 18.4 µM [cytotoxic, partial curve]	–
CCOc1ccc(-n2c(=O)c3c(C)c(C)sc3n(Cc3ccc(C(C)(C)C)cc3)c2=O)cc1	inconclusive: 25.9 µM [cytotoxic, partial curve, poor fit]	–
CC(=O)NC(Cc1ccc(F)cc1)C(=O)NC1CCN(C(=O)Nc2cccc(C)c2)CC1 (centres undefined)	inconclusive: 20.6 µM [rising, single point]	–
Cc1ccc(S(=O)(=O)n2nccc2-c2c(-c3ccccc3)noc2C)cc1	inconclusive: 20.6 µM [cytotoxic, single point]	–
CCN(CC)S(=O)(=O)c1ccc2oc(C(=O)N3CCc4ccccc4C3)c(C)c2c1	inconclusive: 29.1 µM [cytotoxic, single point]	–
COc1ccc(NCc2nnc(SCc3ccc(Cl)cc3)n2-c2ccccc2)cc1	inconclusive: 18.4 µM [cytotoxic, single point]	–
CCCCCN=C(N)N/N=C/c1c[nH]c2ccc(OC)cc12	inconclusive: 29.1 µM [cytotoxic, single point]	–
C[C@H](CO)N1C[C@H](C)[C@@H](CN(C)Cc2ccc3c(c2)OCO3)Oc2c(NC(=O)Cc3ccccc3)cccc2C1=O	inconclusive: 29.1 µM [cytotoxic, single point]	–
CC1=NN(c2ccc(N)cc2)C(=O)C1	–	inactive: 7.12%
CCCC(=O)NC(=S)Nc1cccc2c(O)cccc12	–	inactive: 15.8%
COC(=O)c1cc(S(=O)(=O)N(Cc2ccccc2)C(C)(C)C)c[nH]1	inconclusive: 29.1 µM [cytotoxic, single point]	–
Nc1ccccc1SCc1cc([N+](=O)[O-])cc2c1OCOC2	–	inconclusive: 33.1%
NNC(=O)c1cccc(COc2ccccc2Br)c1	inconclusive: 29.1 µM [cytotoxic, single point]	–
Nn1c(=O)[nH]c2ccccc2c1=O	–	inactive: -0.958%
COc1ccc(Nc2nc3c(S(=O)(=O)c4ccc(C)cc4)nnn3c3ccsc23)cc1Cl	inconclusive: 29.1 µM [rising, single point]	–
